Results are given in words; binding and its absence hold for the method and conditions named. Binding seen in cells or lysates may run through a third protein. These calls come from enrichment with a bait or labelling near it, and not all partners need be listed.
Biological target: Enhancer of Zeste Homolog-2 (EZH2) (human (endogenous in EA.hy926)) (UniProt Q15910)
Experiment: affinity purification with mass spectrometry

Chains of the proteins cited; added tags and fusions are not shown. Lines headed by an entry give the natural chain unless they say otherwise; changes in a name come on top. Residues count along the entry.
UniProt Q15910: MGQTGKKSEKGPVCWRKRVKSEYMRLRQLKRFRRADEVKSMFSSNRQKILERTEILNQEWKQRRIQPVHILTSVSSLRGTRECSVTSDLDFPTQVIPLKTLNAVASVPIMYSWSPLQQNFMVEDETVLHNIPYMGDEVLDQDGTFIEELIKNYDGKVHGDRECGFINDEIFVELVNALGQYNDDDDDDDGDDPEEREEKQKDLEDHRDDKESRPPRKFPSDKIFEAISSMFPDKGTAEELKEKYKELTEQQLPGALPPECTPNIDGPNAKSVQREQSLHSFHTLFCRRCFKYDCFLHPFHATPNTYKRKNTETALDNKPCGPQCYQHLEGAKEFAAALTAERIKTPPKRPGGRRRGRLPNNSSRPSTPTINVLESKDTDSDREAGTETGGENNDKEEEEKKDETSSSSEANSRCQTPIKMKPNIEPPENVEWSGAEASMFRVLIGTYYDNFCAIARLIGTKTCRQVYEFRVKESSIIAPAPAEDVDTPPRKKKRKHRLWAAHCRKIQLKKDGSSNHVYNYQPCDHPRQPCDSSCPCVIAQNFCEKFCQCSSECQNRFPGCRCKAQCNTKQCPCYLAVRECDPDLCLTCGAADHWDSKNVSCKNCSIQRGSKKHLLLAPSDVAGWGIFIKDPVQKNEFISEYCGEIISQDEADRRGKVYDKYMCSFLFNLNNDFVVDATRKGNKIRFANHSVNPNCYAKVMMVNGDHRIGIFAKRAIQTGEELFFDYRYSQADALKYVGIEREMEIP
UniProt P07339: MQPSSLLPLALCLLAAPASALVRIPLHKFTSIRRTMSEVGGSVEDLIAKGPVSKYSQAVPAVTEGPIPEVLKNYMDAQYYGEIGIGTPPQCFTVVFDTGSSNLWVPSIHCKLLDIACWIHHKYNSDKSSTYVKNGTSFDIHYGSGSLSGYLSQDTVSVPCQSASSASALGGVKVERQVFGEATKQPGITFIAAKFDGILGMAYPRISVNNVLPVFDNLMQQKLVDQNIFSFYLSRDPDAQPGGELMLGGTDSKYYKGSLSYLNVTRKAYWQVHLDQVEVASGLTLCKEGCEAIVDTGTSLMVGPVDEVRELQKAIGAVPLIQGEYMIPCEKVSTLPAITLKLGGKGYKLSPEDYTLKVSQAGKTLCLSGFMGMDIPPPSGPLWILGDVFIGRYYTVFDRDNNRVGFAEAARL
UniProt Q13510, residues 22-395: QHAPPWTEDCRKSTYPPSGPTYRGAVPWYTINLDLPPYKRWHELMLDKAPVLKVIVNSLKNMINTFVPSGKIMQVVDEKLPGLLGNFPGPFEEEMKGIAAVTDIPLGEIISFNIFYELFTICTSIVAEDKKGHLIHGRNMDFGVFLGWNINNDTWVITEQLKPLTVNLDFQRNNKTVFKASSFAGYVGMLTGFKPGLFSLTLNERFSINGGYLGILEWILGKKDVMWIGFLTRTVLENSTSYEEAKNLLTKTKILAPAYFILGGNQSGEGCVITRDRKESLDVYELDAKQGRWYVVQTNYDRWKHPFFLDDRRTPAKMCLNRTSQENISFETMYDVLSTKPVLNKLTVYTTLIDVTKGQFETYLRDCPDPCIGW
UniProt P28074: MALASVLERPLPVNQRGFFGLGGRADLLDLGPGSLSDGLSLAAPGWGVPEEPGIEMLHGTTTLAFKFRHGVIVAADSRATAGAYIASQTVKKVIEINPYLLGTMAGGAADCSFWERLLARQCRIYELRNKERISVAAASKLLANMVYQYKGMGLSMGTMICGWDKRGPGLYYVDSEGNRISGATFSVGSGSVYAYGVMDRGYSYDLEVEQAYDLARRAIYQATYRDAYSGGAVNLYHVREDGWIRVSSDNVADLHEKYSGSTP

## cathepsin D lysosomal protease (from UniProt P07339) (enzyme)
  binding: binds

## lysosomal acid ceramidase (from UniProt Q13510 22-395) (enzyme)
  binding: binds

## proteasome subunit beta type-5 (from UniProt P28074)
  binding: binds
